Results from publication PMC6159992, “Selective disruption of TLR2-MyD88 interaction inhibits inflammation and attenuates Alzheimer’s pathology” (The Journal of Clinical Investigation, 2018).
These are yes or no findings as the source states them, for the method shown. In cells and extracts the contact can be indirect. Some results given as binding are weak or reduced against the parent protein; the word gives no strength.

Sequences of proteins named here, by UniProt entry; tags and fusion partners are left off. Residues count along the entry.
UniProt P22366: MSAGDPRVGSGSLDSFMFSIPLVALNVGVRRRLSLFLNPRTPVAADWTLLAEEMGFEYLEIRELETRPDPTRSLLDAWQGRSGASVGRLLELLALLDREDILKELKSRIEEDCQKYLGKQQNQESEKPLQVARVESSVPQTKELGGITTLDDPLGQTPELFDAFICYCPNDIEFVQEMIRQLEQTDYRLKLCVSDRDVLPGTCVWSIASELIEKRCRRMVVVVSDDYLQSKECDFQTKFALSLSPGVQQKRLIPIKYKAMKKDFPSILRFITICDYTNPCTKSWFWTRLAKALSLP
UniProt Q9QUK6, residues 26-835: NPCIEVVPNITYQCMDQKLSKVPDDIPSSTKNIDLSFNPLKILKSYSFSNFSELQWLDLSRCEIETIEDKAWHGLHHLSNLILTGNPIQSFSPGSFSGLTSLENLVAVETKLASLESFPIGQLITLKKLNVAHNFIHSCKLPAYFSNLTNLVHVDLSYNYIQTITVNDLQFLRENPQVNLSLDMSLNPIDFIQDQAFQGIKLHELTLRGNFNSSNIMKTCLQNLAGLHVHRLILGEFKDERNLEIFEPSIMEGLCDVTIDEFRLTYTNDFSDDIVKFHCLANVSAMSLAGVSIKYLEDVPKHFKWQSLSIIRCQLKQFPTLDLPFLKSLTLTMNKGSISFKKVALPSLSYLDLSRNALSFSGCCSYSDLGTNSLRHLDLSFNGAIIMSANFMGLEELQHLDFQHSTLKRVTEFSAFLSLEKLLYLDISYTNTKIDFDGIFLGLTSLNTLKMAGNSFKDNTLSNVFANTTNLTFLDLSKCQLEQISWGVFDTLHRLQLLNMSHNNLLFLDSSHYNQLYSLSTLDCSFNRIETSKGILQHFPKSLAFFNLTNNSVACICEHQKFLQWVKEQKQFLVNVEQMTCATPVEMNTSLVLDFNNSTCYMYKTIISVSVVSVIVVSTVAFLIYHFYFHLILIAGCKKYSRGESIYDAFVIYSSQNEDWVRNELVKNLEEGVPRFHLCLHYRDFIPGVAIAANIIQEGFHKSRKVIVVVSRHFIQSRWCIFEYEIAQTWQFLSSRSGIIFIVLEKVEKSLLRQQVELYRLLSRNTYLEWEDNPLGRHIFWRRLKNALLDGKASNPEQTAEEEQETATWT
UniProt Q9QUN7, residues 640-784: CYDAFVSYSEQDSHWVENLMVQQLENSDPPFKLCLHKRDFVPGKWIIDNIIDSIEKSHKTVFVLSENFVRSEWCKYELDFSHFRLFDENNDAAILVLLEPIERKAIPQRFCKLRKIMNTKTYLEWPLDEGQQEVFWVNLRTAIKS

Molecular target: MyD88 (mouse (endogenous in BV-2)) (UniProt P22366)
Assay: co-IP; BV-2 microglial cells preincubated with WT TIDM or mTIDM for 1 hour, stimulated for 1 hour with 1 μM fibrillar Aβ1-42 or LPS, serum-free; cellular extracts immunoprecipitated with anti-MyD88 antibody, blotted for TLR2, TLR4 or cMyc (cells transduced with pLenti-cMyc-cTlr2); normal IgG as control

| binding | Substance |
| --- | --- |
| binds | TLR4 (from UniProt Q9QUK6 26-835) (receptor) |
| binds | Myc-tagged cTLR2 expressed in BV-2 microglial cells (pLenti-cMyc-cTlr2) (from UniProt Q9QUN7 640-784) (domain or fragment) |
